PubChem BioAssay AID1508597, Cure First – 2020

- Purpose: 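Knock-downs altering ovarian cancer cell survival with or without PARP inhibitor rucaparib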 (primary screen)
- Cell system: human ovarian carcinoma lines grown from tumours: OCI-P5x (papillary serous) and OCI-C5x (clear cell)
- Knock-down reagent: siRNA pool against human genes, 1.25 pmol siRNA per well
- Duration: 72 h or 96 h, depending on the cell culture
- Challenge: rucaparib 20 µM (about IC30) or vehicle, present until read-out
- Rucaparib or vehicle: Vehicle
- Cell line: OCI-C5x (clear cell)
- Measurement: 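ATP luminescence measured at 72 or 96 h according to the culture, then normalised and expressed as percent viability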
- Direction: viability, normalised: higher = more viable cells remaining
- Rule for the call: 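Active when normalised viability falls below 80 percent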
- Calls: active = viability under 80%; inactive = viability 80% or more
Shown is a random part of the about 2,100 reagents, under one of the conditions tested. 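Calls flag viability under 80% in either arm, not effects specific to rucaparib; the reference for percent is not stated.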 A reagent listed more than once was tested more than once; the source does not tell the runs apart. Reagent sequences are not shown. The record does not give: the 100% reference.

| Target gene | PubChem SID | technical replicate | viability, normalised (%) | activity call |
| --- | --- | --- | --- | --- |
| HUNK (GeneID 30811) | SID405527817 | 1 | 59.2 | active |
| HUNK (GeneID 30811) | SID405527817 | 2 | 48.5 | active |
| HUNK (GeneID 30811) | SID405527817 | 3 | 45.2 | active |
| ATOH1 (GeneID 474) | SID405528001 | 1 | 44.6 | active |
| ATOH1 (GeneID 474) | SID405528001 | 2 | 65 | active |
| ATOH1 (GeneID 474) | SID405528001 | 3 | 43.2 | active |
| ZSCAN21 (GeneID 7589) | SID405526327 | 1 | 74.4 | active |
| ZSCAN21 (GeneID 7589) | SID405526327 | 2 | 63.8 | active |
| ZSCAN21 (GeneID 7589) | SID405526327 | 3 | 65.1 | active |
| BCORL1 (GeneID 63035) | SID405528028 | 1 | 37.8 | active |
| BCORL1 (GeneID 63035) | SID405528028 | 2 | 41.8 | active |
| BCORL1 (GeneID 63035) | SID405528028 | 3 | 40.6 | active |
| TSTD1 (GeneID 100131187) | SID405526662 | 1 | 53.2 | active |
| TSTD1 (GeneID 100131187) | SID405526662 | 2 | 51.8 | active |
| TSTD1 (GeneID 100131187) | SID405526662 | 3 | 67.5 | active |
| HIPK1 (GeneID 204851) | SID405527680 | 1 | 72 | active |
| HIPK1 (GeneID 204851) | SID405527680 | 2 | 68.9 | active |
| HIPK1 (GeneID 204851) | SID405527680 | 3 | 64.9 | active |
| GADD45G (GeneID 10912) | SID405528317 | 1 | 70.8 | active |
| GADD45G (GeneID 10912) | SID405528317 | 2 | 51.3 | active |
| GADD45G (GeneID 10912) | SID405528317 | 3 | 47.9 | active |
| SOX15 (GeneID 6665) | SID405527358 | 1 | 38.9 | active |
| SOX15 (GeneID 6665) | SID405527358 | 2 | 33.8 | active |
| SOX15 (GeneID 6665) | SID405527358 | 3 | 44 | active |
| ERRFI1 (GeneID 54206) | SID405526764 | 1 | 56 | active |
| ERRFI1 (GeneID 54206) | SID405526764 | 2 | 58 | active |
| ERRFI1 (GeneID 54206) | SID405526764 | 3 | 61.7 | active |
| WWTR1 (GeneID 25937) | SID405526412 | 1 | 41.8 | active |
| WWTR1 (GeneID 25937) | SID405526412 | 2 | 55.8 | active |
| WWTR1 (GeneID 25937) | SID405526412 | 3 | 59.5 | active |
| SUDS3 (GeneID 64426) | SID405526503 | 1 | 26.3 | active |
| SUDS3 (GeneID 64426) | SID405526503 | 2 | 26.8 | active |
| SUDS3 (GeneID 64426) | SID405526503 | 3 | 34.9 | active |
| CDK15 (GeneID 65061) | SID405527426 | 1 | 63.9 | active |
| CDK15 (GeneID 65061) | SID405527426 | 2 | 64.1 | active |
| CDK15 (GeneID 65061) | SID405527426 | 3 | 80.5 | inactive |
| CSNK1E (GeneID 1454) | SID405526352 | 1 | 69.8 | active |
| CSNK1E (GeneID 1454) | SID405526352 | 1 | 65.7 | active |
| CSNK1E (GeneID 1454) | SID405526352 | 1 | 57.2 | active |
| CSNK1E (GeneID 1454) | SID405526352 | 2 | 59.3 | active |
| CSNK1E (GeneID 1454) | SID405526352 | 2 | 40.9 | active |
| CSNK1E (GeneID 1454) | SID405526352 | 2 | 59.7 | active |
| CSNK1E (GeneID 1454) | SID405526352 | 3 | 64.9 | active |
| CSNK1E (GeneID 1454) | SID405526352 | 3 | 59.7 | active |
| CSNK1E (GeneID 1454) | SID405526352 | 3 | 35.6 | active |
| HSPB8 (GeneID 26353) | SID405527815 | 1 | 59.9 | active |
| HSPB8 (GeneID 26353) | SID405527815 | 2 | 54.6 | active |
| HSPB8 (GeneID 26353) | SID405527815 | 3 | 48.9 | active |
| HK3 (GeneID 3101) | SID405527794 | 1 | 61.7 | active |
| HK3 (GeneID 3101) | SID405527794 | 2 | 56.1 | active |
| HK3 (GeneID 3101) | SID405527794 | 3 | 52.6 | active |
| TRIM16 (GeneID 10626) | SID405526582 | 1 | 70.4 | active |
| TRIM16 (GeneID 10626) | SID405526582 | 2 | 66.3 | active |
| TRIM16 (GeneID 10626) | SID405526582 | 3 | 65.7 | active |
| PPM1D (GeneID 8493) | SID405526339 | 1 | 72.8 | active |
| PPM1D (GeneID 8493) | SID405526339 | 2 | 79.5 | active |
| PPM1D (GeneID 8493) | SID405526339 | 3 | 65.2 | active |
